Results published in the supplement of paper PMC10849652.
Some of the results follow.

Chains of the proteins cited; added tags and fusions are not shown. Lines headed by an entry give the natural chain unless they say otherwise; changes in a name come on top.
UniProt Q9BRQ0: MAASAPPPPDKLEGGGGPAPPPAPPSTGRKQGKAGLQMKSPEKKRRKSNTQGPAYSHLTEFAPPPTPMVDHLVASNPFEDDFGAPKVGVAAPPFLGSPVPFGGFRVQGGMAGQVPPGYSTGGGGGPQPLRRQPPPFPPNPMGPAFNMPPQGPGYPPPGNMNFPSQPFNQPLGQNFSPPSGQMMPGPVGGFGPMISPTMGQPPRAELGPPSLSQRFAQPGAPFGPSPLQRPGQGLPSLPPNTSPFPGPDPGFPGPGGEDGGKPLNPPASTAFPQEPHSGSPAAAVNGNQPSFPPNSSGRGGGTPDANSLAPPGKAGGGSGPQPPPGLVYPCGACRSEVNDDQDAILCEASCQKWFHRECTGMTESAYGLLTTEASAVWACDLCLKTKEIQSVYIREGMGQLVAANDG
UniProt Q8NDX1: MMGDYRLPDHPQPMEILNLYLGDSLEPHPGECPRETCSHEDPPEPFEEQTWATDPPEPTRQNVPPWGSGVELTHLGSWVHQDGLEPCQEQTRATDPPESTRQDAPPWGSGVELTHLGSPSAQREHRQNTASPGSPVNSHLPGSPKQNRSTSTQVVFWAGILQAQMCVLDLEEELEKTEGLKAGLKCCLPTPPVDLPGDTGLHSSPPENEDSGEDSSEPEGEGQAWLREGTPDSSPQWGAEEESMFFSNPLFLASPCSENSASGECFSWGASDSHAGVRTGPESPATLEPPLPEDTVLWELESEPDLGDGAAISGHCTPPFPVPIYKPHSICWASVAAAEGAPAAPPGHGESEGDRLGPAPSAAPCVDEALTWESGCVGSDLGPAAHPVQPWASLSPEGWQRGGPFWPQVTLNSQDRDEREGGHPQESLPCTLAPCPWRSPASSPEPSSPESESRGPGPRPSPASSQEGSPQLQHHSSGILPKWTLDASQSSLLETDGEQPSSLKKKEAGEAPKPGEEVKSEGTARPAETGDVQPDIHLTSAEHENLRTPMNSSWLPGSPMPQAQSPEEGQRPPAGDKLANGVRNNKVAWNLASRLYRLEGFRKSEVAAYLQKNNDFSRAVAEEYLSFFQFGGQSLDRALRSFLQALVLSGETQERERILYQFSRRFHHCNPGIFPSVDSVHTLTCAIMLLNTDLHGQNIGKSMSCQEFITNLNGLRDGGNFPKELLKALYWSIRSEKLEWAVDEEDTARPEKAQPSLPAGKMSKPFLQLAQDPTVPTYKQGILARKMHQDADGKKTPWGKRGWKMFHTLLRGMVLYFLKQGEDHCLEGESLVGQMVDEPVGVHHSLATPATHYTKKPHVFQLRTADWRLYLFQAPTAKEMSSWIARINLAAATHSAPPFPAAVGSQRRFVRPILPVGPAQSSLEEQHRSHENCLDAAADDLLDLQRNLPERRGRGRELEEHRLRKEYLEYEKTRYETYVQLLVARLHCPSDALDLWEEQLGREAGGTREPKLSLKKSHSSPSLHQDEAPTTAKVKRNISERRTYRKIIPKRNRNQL
UniProt Q99952: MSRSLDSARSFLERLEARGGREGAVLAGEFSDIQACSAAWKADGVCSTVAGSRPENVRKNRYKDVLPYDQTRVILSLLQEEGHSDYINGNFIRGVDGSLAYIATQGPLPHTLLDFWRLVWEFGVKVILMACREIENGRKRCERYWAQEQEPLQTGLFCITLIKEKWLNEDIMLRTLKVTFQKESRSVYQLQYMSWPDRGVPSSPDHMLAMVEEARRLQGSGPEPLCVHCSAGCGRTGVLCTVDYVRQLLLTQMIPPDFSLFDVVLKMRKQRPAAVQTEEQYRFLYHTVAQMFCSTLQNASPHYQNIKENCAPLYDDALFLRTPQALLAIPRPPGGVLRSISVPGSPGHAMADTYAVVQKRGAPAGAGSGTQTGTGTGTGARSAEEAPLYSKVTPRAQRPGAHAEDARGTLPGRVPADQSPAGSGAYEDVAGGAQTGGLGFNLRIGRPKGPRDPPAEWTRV
UniProt P28065: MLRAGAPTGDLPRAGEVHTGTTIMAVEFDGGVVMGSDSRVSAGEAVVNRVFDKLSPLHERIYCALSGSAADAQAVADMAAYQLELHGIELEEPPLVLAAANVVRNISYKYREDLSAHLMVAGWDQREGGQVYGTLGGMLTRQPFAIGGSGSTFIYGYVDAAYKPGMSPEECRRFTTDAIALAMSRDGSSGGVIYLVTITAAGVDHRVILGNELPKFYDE
UniProt Q9Y606: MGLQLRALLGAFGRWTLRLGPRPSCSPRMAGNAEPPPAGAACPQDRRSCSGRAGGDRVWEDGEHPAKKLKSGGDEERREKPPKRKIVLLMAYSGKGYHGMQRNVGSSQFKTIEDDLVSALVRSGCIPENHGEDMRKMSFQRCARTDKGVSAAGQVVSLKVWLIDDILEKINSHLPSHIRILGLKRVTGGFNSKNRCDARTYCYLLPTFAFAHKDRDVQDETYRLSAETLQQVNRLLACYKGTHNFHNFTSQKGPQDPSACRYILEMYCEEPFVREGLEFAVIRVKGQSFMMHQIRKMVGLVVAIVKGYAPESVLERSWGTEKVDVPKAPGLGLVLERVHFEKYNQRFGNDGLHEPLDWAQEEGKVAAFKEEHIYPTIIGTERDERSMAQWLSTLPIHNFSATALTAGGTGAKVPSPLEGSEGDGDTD
UniProt Q8N0Z8: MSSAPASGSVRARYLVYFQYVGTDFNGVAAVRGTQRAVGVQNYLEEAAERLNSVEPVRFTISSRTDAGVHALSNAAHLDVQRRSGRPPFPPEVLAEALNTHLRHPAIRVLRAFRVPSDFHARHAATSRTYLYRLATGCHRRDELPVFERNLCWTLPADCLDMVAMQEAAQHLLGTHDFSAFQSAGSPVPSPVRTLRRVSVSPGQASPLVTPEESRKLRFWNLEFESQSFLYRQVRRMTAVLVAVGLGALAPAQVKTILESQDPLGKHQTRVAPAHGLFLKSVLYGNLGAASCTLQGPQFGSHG
UniProt P28074: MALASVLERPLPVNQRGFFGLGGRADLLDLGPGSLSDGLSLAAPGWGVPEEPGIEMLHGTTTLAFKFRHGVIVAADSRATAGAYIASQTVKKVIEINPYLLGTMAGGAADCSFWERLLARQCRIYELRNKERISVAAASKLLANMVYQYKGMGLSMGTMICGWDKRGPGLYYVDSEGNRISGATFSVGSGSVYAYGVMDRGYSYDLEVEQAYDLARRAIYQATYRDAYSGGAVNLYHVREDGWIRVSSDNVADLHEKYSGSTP
UniProt Q03393: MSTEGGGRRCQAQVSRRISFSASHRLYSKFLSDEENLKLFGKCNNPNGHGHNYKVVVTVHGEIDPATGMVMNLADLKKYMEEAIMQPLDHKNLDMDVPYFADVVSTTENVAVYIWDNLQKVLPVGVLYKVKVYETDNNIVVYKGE
UniProt Q9P2W1: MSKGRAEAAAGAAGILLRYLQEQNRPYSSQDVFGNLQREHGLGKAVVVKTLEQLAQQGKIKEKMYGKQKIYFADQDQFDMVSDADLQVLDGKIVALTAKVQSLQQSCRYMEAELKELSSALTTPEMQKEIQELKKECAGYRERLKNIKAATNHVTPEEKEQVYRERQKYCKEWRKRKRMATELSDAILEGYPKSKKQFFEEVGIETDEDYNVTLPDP
UniProt Q8WUY3: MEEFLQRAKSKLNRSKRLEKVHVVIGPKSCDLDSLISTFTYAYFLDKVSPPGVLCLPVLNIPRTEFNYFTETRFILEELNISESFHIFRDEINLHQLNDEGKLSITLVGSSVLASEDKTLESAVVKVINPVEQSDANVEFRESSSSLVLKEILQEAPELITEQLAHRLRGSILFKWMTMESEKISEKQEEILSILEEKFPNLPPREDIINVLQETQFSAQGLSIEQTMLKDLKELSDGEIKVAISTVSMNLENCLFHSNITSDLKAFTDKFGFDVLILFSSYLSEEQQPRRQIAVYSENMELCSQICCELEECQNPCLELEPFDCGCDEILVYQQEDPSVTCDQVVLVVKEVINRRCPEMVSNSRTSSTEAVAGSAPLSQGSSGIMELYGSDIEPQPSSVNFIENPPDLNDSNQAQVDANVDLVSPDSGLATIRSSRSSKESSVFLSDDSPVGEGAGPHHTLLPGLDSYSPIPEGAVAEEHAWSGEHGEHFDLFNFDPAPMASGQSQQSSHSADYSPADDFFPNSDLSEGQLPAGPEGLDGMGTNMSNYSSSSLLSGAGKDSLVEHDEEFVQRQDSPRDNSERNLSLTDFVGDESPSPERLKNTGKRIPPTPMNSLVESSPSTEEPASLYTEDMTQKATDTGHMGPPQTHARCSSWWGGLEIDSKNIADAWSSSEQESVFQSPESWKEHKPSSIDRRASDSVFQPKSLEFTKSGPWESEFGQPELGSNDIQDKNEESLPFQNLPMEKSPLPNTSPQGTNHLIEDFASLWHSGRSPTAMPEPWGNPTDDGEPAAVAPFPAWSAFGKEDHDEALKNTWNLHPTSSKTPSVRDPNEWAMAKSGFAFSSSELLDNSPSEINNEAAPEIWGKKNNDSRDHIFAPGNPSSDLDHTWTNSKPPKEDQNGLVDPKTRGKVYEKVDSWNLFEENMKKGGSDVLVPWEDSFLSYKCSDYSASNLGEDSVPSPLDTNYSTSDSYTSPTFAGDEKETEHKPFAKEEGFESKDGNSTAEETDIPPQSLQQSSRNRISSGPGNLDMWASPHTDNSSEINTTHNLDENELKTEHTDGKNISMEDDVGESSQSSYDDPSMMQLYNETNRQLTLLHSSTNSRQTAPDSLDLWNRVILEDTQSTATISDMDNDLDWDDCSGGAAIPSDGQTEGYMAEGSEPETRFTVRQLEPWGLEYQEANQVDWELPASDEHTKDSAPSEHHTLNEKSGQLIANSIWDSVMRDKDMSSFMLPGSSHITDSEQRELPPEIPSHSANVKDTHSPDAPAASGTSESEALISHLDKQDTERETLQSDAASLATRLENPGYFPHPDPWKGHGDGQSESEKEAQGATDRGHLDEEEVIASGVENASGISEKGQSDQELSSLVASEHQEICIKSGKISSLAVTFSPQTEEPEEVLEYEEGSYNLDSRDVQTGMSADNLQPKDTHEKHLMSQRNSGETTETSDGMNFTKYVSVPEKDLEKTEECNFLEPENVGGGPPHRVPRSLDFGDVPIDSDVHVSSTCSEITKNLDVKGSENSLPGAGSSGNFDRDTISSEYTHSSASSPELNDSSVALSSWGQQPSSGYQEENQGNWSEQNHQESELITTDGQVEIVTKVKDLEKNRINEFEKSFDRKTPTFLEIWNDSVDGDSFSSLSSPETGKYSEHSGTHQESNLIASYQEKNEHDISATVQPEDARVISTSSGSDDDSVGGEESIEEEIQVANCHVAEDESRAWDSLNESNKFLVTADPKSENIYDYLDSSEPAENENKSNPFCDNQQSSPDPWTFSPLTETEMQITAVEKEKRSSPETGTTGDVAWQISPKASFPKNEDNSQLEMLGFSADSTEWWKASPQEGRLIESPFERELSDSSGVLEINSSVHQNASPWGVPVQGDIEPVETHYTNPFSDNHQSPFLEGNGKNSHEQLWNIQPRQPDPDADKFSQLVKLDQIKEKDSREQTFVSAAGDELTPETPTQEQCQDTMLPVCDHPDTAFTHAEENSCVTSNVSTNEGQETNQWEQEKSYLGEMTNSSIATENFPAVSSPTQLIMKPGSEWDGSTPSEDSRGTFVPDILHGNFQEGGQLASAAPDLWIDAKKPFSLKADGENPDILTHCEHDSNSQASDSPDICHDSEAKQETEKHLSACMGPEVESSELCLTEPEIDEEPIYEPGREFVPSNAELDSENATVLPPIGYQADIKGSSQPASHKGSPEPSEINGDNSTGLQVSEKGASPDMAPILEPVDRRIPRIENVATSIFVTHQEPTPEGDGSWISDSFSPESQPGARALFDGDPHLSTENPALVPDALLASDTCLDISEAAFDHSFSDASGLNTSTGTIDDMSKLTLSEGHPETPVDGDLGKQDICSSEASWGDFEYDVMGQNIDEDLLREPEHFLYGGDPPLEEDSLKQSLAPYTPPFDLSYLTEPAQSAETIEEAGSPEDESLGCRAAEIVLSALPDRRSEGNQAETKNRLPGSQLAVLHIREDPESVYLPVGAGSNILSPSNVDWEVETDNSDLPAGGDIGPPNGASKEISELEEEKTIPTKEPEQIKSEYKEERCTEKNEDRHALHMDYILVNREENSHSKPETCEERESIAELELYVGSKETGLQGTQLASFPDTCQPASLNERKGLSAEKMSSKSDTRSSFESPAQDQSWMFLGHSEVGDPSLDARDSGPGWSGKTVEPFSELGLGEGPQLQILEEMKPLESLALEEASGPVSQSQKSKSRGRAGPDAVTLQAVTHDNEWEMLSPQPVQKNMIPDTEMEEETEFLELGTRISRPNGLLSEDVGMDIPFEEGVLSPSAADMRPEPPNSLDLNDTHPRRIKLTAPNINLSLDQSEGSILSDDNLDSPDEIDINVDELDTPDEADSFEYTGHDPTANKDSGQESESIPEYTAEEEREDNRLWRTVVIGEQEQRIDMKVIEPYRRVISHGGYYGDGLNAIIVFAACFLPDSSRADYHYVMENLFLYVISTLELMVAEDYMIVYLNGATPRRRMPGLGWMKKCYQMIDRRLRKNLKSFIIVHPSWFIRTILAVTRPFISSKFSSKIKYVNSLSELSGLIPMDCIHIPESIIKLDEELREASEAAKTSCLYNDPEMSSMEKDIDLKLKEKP

The targets below were run with Nc1ccccc1NC(=O)c1ccc(CNC(=O)OCc2cccnc2)cc1 [entinostat] (assay: log2 fold change, soluble protein after heating vs DMSO (PISA); higher = thermal stabilisation; K562 cells, 10 uM, 30 min; active = over 0.2 and 3.5 SD of the protein, either way, in both replicates (recomputed)).
How it was run: (§1)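 Soluble protein was quantified by TMTpro 16plex LC-MS/MS after channel sums were equalised. It was obtained as the supernatant after 21,000xg for 90 min from pooled aliquots of K562 cells (2×10^6 cells/mL, 10 μM compound, 30 min) heated for 3 min across 48°C-58°C and extracted in PBS with 0.5% NP-40 at 4°C. Thermal stability values are relative to control samples and come from duplicates. They are given as log2 fold changes.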
With PTBP2 isoform 3 (UniProt Q9UKA9) the log2 fold change was inactive: -0.299. PSEN1 (UniProt P49768) was tested, and the log2 fold change was inactive: -0.168. PYGO2 (UniProt Q9BRQ0) was tested, and the log2 fold change was inactive: 0.08. R3HCC1L (UniProt Q7Z5L2) was tested, and the log2 fold change was inactive: -0.087. For R3HCC1 (UniProt Q9Y3T6), the log2 fold change was inactive: -0.084. In the case of PSD4 (UniProt Q8NDX1), the log2 fold change is reported as inactive: 0.002. PTPN18 (UniProt Q99952) was tested, and the log2 fold change was inactive: -0.174. In the case of PTPN7 isoform 3 (UniProt P35236), the log2 fold change is reported as inactive: 0. PTPRS (UniProt Q13332) was tested, and the log2 fold change was inactive: 0.03. PSMB9 (UniProt P28065) was tested, and the log2 fold change was inactive: -0.118. With PUS1 (UniProt Q9Y606) the log2 fold change was inactive: 0.261. In the case of PTPRJ (UniProt Q12913), the log2 fold change is reported as inactive: 0. In the case of PSMC3 (UniProt E9PLG2), the log2 fold change is reported as inactive: -0.438. For PUSL1 (UniProt Q8N0Z8), the log2 fold change was inactive: 0.055. PSMB5 isoform 3 (UniProt P28074) was tested, and the log2 fold change was inactive: -0.287. PURG (UniProt Q9UJV8) was tested, and the log2 fold change was inactive: -0.11.

These targets were tested with O=C(CCCCCCC(=O)Nc1ccccc1)NO [vorinostat] in the same assay as above.
How it was run: as §1
In the case of PYCR1 (UniProt J3QKT4), the log2 fold change is reported as inactive: -0.111. PTBP2 isoform 3 (UniProt Q9UKA9) was tested, and the log2 fold change was inactive: 0.318. For PSMB8 (UniProt P28062), the log2 fold change was inactive: 0.3. In the case of PYGO2 (UniProt Q9BRQ0), the log2 fold change is reported as inactive: -0.039. With R3HCC1L (UniProt Q7Z5L2) the log2 fold change was inactive: 0.101. R3HCC1 (UniProt Q9Y3T6) was tested, and the log2 fold change was inactive: -0.045. In the case of PTS (UniProt Q03393), the log2 fold change is reported as inactive: -0.107. With PTRH1 (UniProt Q86Y79) the log2 fold change was inactive: 0.175. With PSMC1 (UniProt G3V4X1) the log2 fold change was inactive: 0.168. In the case of PTPRS (UniProt Q13332), the log2 fold change is reported as inactive: 0.054. With PUM1 (UniProt Q14671) the log2 fold change was inactive: -0.037. In the case of PTEN isoform 2 (UniProt P60484), the log2 fold change is reported as inactive: 0.024. With PSMB9 (UniProt P28065) the log2 fold change was inactive: 0.086. With PUS1 (UniProt Q9Y606) the log2 fold change was inactive: 0.188. With PSIP1 (UniProt V9GYT7) the log2 fold change was inactive: -0.055. For PUSL1 (UniProt Q8N0Z8), the log2 fold change was inactive: -0.048. For PTPN9 (UniProt P43378), the log2 fold change was inactive: 0.171. With PSMC3IP (UniProt Q9P2W1) the log2 fold change was inactive: 0.134.

What follows are targets tested with O=C(CCCCCCNC(=O)c1cnc(N(c2ccccc2)c2ccccc2Cl)nc1)NO [citarinostat] in the same assay as above.
How it was run: as §1
For PYCR1 (UniProt J3QKT4), the log2 fold change was inactive: -0.091. PSEN1 (UniProt P49768) was tested, and the log2 fold change was inactive: -0.088. In the case of PYGO2 (UniProt Q9BRQ0), the log2 fold change is reported as inactive: -0.14. For PSD4 (UniProt Q8NDX1), the log2 fold change was inactive: -0.051. In the case of PTS (UniProt Q03393), the log2 fold change is reported as inactive: 0.063. In the case of PTPN18 (UniProt Q99952), the log2 fold change is reported as inactive: -0.035. For PSMA3 (UniProt H0YJ03), the log2 fold change was inactive: 0.081. For PTPN7 isoform 3 (UniProt P35236), the log2 fold change was inactive: 0.068. In the case of PRUNE2 isoform 3 (UniProt Q8WUY3), the log2 fold change is reported as inactive: 0.156. With PTEN isoform 2 (UniProt P60484) the log2 fold change was inactive: 0.089. In the case of PSMB9 (UniProt P28065), the log2 fold change is reported as inactive: -0.028. PUS1 (UniProt Q9Y606) was tested, and the log2 fold change was inactive: 0.188. PSIP1 (UniProt V9GYT7) was tested, and the log2 fold change was inactive: -0.077. With PUSL1 (UniProt Q8N0Z8) the log2 fold change was inactive: 0.098. For PSMB5 isoform 3 (UniProt P28074), the log2 fold change was inactive: -0.544. PSD3 (UniProt Q9NYI0) was tested, and the log2 fold change was inactive: 0.017. With PSMC3IP (UniProt Q9P2W1) the log2 fold change was inactive: 0.388.

These targets were tested with O=C(O)c1ccc2c(c1)nc(Nc1cccc(Cl)c1)c1ccncc12 [silmitasertib] in the same assay as above.
How it was run: as §1
In the case of PSEN1 (UniProt P49768), the log2 fold change is reported as inactive: 0.012. For PUF60 isoform 2 (UniProt Q9UHX1), the log2 fold change was inactive: 0.069. PYGO2 (UniProt Q9BRQ0) was tested, and the log2 fold change was inactive: -0.064. For PTS (UniProt Q03393), the log2 fold change was inactive: -0.027. For PTPN18 (UniProt Q99952), the log2 fold change was inactive: -0.025. For PRUNE2 isoform 3 (UniProt Q8WUY3), the log2 fold change was inactive: -0.165. With PSIP1 (UniProt V9GYT7) the log2 fold change was inactive: 0.006. For PSMC3 (UniProt E9PLG2), the log2 fold change was inactive: 0.097. For PUSL1 (UniProt Q8N0Z8), the log2 fold change was inactive: 0.094. In the case of PTPN9 (UniProt P43378), the log2 fold change is reported as inactive: -0.191. For PSD3 (UniProt Q9NYI0), the log2 fold change was inactive: -0.095. With PSMC3IP (UniProt Q9P2W1) the log2 fold change was inactive: 0.028.

Each target was assayed with O=C1NC(=O)C(c2cnc3ccccn23)=C1c1cn2c3c(cc(F)cc13)CN(C(=O)N1CCCCC1)CC2 in the same assay as above.
How it was run: as §1
With PYCR1 (UniProt J3QKT4) the log2 fold change was inactive: -0.114. PSEN1 (UniProt P49768) was tested, and the log2 fold change was inactive: -0.028. For PYGO2 (UniProt Q9BRQ0), the log2 fold change was inactive: 0.011. For PSD4 (UniProt Q8NDX1), the log2 fold change was inactive: -0.145. For PTS (UniProt Q03393), the log2 fold change was inactive: -0.182. With PTPRS (UniProt Q13332) the log2 fold change was inactive: -0.077. PRUNE2 isoform 3 (UniProt Q8WUY3) was tested, and the log2 fold change was inactive: -0.119. With PSMB9 (UniProt P28065) the log2 fold change was inactive: -0.061. In the case of PUS1 (UniProt Q9Y606), the log2 fold change is reported as inactive: 0.087. PTPRJ (UniProt Q12913) was tested, and the log2 fold change was inactive: -0.095. For PSMC3 (UniProt E9PLG2), the log2 fold change was inactive: -0.327. For PUSL1 (UniProt Q8N0Z8), the log2 fold change was inactive: 0.169. With PSMB5 isoform 3 (UniProt P28074) the log2 fold change was inactive: -0.095. With PURG (UniProt Q9UJV8) the log2 fold change was inactive: 0.434. With PSMC3IP (UniProt Q9P2W1) the log2 fold change was inactive: -0.067.
